Assay results reported in patent publication US20100092460A1.
No constants are given. Whether binding was seen depends on the method and setting. Some entries that bind do so weakly or less than the wild type.

By UniProt entry, the sequences of proteins in these tests, tags left out. Residues count along the entry.
UniProt P13500, residues 24-99: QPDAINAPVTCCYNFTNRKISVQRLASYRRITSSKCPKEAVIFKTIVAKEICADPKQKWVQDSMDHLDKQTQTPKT
UniProt P10147, residues 27-92: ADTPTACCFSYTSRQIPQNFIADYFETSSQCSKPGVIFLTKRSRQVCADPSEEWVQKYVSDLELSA

T1: recombinant human CXCL11/I-TAC (human) (UniProt O14625)
T1 sequence (biotinylated in the ELISA; 125I label in the radioligand assays, looked up): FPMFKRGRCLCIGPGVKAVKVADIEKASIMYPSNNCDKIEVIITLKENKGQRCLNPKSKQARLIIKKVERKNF

B1: Nanobody 8C10 (VHH, not shown: small tags and cut ends)
VHH: EVQLVESGGGLVQAGGSLRLSCAASGRSFSSHRMGWFRQAPGKEREFVASISRSGENTYYADSVKGRFTISRDNAKNTVYLQMNSLKSEDTAVYYCAASGGMGISAPNSYAYWGQGTQVTVSS
B2: Nanobody 9C8 (VHH, not shown: small tags and cut ends)
VHH: EVQLVESGGGLLTTGGSLRLSCTASESIFSGNNMGWFRQAPGKQREWVATVTDGGWRNYAESVKGRFTISRDNAKNTVYLQMNSLKPEDTAVYYCNRVAGWAGPLGSWGQGTQVTVSS
B3: Nanobody 9A2 (VHH, not shown: small tags and cut ends)
VHH: EVQLVESGGALVQPGGSLRLSCAASGFTFDDYAMSWVRQAPGKGLEWVSAISWNAGTTYYAESIQGRFTISRDNAKNTLYLQMNSLKPEDTAVYYCVQDRLYGSNWSDLLDEYDYWGQGTQVTVSS
B4: Nanobody 9A8 (VHH, not shown: small tags and cut ends)
VHH: EVQLVESGGGLVQPGGSLRLSCAASGSIFINSMGWYRQAPGNEREFVARISSGGSTNYEDSVKGRFTISQDNAKNTVYLQMDSLKPEDTASYVCYAIGGGAVHWGQGTQVTVSS
B5: Nanobody 9B8 (VHH, not shown: small tags and cut ends)
VHH: EVQLVESGGGLVQPGGSLRLSCVASGINFSRYGLGWYRQVPGGQRELVASITSGGSTNYAESVKGRFTISRDNFKNTVYLQMDNLKPEDTAVYYCSAIGWRYWGQGTQVTVSS
B6: Nanobody 9D1 (VHH, not shown: small tags and cut ends)
VHH: EVQLVESGGGLVQAGGSLRLSCVASGRTFSSSNMGWFRQAPGKEREFVAAITWSGGWRYYGDSVKGRFTIFRDDAKNTVFLQMNSLKPEDTAVYYCAVVSSGVSGFSNRYDYWGQGTQVTVSS
B7: Nanobody 9D7 (VHH, not shown: small tags and cut ends)
VHH: EVQLVESGGGLVQPGGSLRLSCAASGFAFSTNAMSWVRQAPGKGLEWISTINSGGWRSYADSVKGRFTISRDDGQNTLYLQMNSLKPEDTAVYYCVHQNYRGQGTQVTVSS
B8: Nanobody 9E1 (VHH, not shown: small tags and cut ends)
VHH: EVQLVESGGGLVQAGDSLRLACAASGGTFSNYAMGWFRQAPGKEREFVGALRWITRITYYADSVKGRFTISKDNAKNTVYLQMNSLKPEDTAVYYCAAGSPSRLVNMNQYNYWGQGTQVTVSS
B9: Nanobody 9E2 (VHH, not shown: small tags and cut ends)
VHH: EVQLVESGGGLVQPGGSLRLSCAASGFTFSSSSMYWVRQAPGKGLEWVSTINMIGFRSYADSVKGRFTIFRDDAKNTLYLQMNNLKPEDTALYYCARDRGGDVRGQGTQVTVSS
B10: Nanobody 9F1 (VHH, not shown: small tags and cut ends)
VHH: EVQLVESGGGLVQAGGSLRLSCAASERTYGMGWFRQAPGKERVFVAAINYSGRSINYSDSVKGRFTISRDNAKNTVYLQMNSLKVEDTAIYYCAADKTLWSISSDRDEYDYWGQGTQVTVSS
B11: Nanobody 9F2 (VHH, not shown: small tags and cut ends)
VHH: EVQLVESGGGLVQAGGSLRLSCAASERTYGMGWFRQAPGKERVFVAAINYSGRSINYSDSVKGRFIISRDNAKNTVYLQMNSLKVEDTAIYYCAADKTLWSISSDRDEYDYWGQGTQVTVSS
B12: Nanobody 9G2 (VHH, not shown: small tags and cut ends)
VHH: EVQLVESGGGLVQAGGSLRLSCAASGFTFDDYAIGWFRQAPGKEREGVSCISPSDGSTYYADSVKGRFTISSDNAKNTVYLQMNSLKPEDTAVYYCAALYSDYDCPHPSIPHEYDYWGQGTQVTVSS
B13: Nanobody 9G7 (VHH, not shown: small tags and cut ends)
VHH: EVQLVESGGGLVQPGGSLRLSCAPSGSILQFNIMGWYRQAPGKQRELVAAITKLGFRNYLDSVKGRFTISTDSAKNTMSLQMNSLKPEDTAVYYCNEVGPGWAPILFDSWGQGTQVTVSS
B14: Nanobody 9H1 (VHH, not shown: small tags and cut ends)
VHH: EVQLVESGGGLVQAGGSLRLSCAVSGRTFNSRPMGWFRQAPGNDREFVAAMRWSSSSTDYADSVKGRFTMSRDNAKNTVFLQMNSLKPEDTAVYYCAAGPSGGIYYKSPGDYDYWGRGTQVTVSS
B15: Nanobody 9H8 (VHH, not shown: small tags and cut ends)
VHH: EVQLVESGGGLVQAGGSLRLSCAASGIITSRYAMHWYRQAPGEQRELVAGITSGGSTSYADSVKGRFTISRDNAKNTVYLQMNGLKPEDTAVYYCKVLGFDRWGQGTQVTVSS
B16: Nanobody 9c2 (VHH, not shown: small tags and cut ends)
VHH: EVQLVESGGGLVQAGGSLRLSCAASGFPFDDYAIGFFRRAPGKEREGVSCLSRSDGSIYSVPSVKGRFTISKDHAKNTVYLQMNNLKPEDTAVYYCAAGDWVRDPCTWYPNDFDSWGQGTQVTVSS
B17: Nanobody 9C7 (VHH, not shown: small tags and cut ends)
VHH: EVQLVESGGGLVQPGGSLRLSCAASGIITSRYLMRWYRQAPGEQRELVADITSGGSTNYRDSVKGRFTISRDNAKNTVYLQMNSLKPEDTAVYYCKALGFDRWGQGTQVTVSS
B18: Nanobody 9H2 (VHH, not shown: small tags and cut ends)
VHH: EVQLVESGGGLVQAGGSLRLSCAASGRTFSSYAMGWFRQAPGKEREFVAAISWSAGSTYYADPVKDRFTISRDNAKNTVYLQMNSLKPEDTAVYYCAAAQFRQVGPYWSDYDVPYEYDYWGQGTQVTVSS
B19: Nanobody 11A4 (VHH, not shown: small tags and cut ends)
VHH: EVQLVESGGGLVQAGGSLRLSCAASGFTLDDYAIGWFRQAPGKEREGISLITSDDGSTYYADSVKGRFTISSDNAKNTVYLQMNSLKPEDTAVYYCAAAQGLLLLSLWVPTQYDYWGQGTQVTVSS
B20: Nanobody 11D7 (VHH, not shown: small tags and cut ends)
VHH: EVQLVESGGGLVQAGGSLRLSCATSGFTFDDYAIGWFRQAPGKEREGVSILSSSDGSTYYADSVKGRFTISSDNAKNTVYLQMNSLKPEDTAVYYCAAGQGWVIATMTSFRAHREYDYWGQGTQVTVSS

What follows are binders tested against recombinant human CCL2/MCP1 (human) (UniProt P13500) (assay: ELISA, periplasmic extract on coated CCL2, anti-myc detection).

binding, binds:
B1

Each binder was assayed against recombinant human CCL3/MIP1 alpha (human) (UniProt P10147) (assay: ELISA, periplasmic extract on biotinylated CCL3 on neutravidin, anti-myc detection).

binding, binds:
B2
B3
B4
B5
B6
B7
B8
B9
B10
B11
B12
B13
B14
B15
B16
B17
B18

Each binder was assayed against T1, recombinant human CXCL11/I-TAC (human) (assay: ELISA, Nanobody captured by coated anti-myc antibody, biotinylated CXCL11, streptavidin-HRP).

binding, binds:
B19
B20

Each binder was assayed against T1, recombinant human CXCL11/I-TAC (human) (assay: inhibition of 125I-CXCL11 binding to hCXCR3 (HEK293T cells), 10x diluted periplasm; ELISA grade at the label).

binding, binds:
B19
B20

The binders below were run against T1, recombinant human CXCL11/I-TAC (human) (assay: inhibition of 125I-CXCL11 binding to hCXCR3 (HEK293T cells), 10x diluted periplasm).

binding, binds:
B19
